In PMC9398908, “GLP-1-mediated delivery of tesaglitazar improves obesity and glucose metabolism in male mice” (Nature Metabolism, 2022):

Tested on: C57BL6/J DIO mice
Experiment: Pancreatic islet histology: islet size and insulin, glucagon, somatostatin signal intensity (Extended Data Fig. 2i–m)
Type: in vivo, mouse
Conditions: Extended Data Fig. 2k; 49-wk old male DIO mice, 14 days daily s.c. 50 nmol/kg; individual mice, n = 3

CCO[C@@H](Cc1ccc(OCCc2ccc(OS(C)(=O)=O)cc2)cc1)C(=O)O [tesaglitazar, (S)-2-ethoxy-3-(4-(4-((methylsulfonyl)oxy)phenethoxy)phenyl) propanoic acid]
signal intensity Insulin (per islet area): 27.00 and 23.52 and 32.22

Values joined by “and” are separate entries in the source; they are usually repeats but may differ in a detail not shown here. Identical values can stand only once.
